From PMC7521923
These are yes or no findings as the source states them, for the method shown. Binding seen in cells or lysates may run through a third protein. Some results given as binding are weak or reduced against the parent protein; the word gives no strength.

Protein sequences, listed by entry. Tags and fused reporters are not part of them. Residues count along the entry.
UniProt Q9ULV1, residues 37-537: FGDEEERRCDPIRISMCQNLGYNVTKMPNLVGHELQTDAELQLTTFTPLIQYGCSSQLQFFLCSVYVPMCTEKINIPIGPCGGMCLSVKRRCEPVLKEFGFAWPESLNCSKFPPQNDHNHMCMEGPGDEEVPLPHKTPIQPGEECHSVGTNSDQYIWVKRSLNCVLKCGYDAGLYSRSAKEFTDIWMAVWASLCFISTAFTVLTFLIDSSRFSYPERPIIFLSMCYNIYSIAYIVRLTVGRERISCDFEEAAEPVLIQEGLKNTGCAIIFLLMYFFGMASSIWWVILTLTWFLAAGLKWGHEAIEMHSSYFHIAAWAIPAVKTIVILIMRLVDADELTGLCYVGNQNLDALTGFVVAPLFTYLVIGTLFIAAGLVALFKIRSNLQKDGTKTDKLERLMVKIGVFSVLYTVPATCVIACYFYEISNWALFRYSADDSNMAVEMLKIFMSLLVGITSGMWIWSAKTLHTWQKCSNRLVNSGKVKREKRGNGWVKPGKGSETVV

Assays:
Assay in all cases: co-IP; both partners expressed in transfected HEK293T cells (FZD5-USP8 also in T79KO cells and with TMEM79 overexpressed; USP8-TMEM79 in FZD null cells); NP40 lysis buffer (50 mM Tris pH 7.5, 150 mM NaCl, 1 mM EDTA, 1% NP40, 10% glycerol, 10 mM NaF); antibody-conjugated agarose beads (anti-c-Myc, anti-HA, anti-Flag M2 or anti-V5) at 4°C overnight; five washes; immunoblot
[1] = target: T1, FZD10 (human) (UniProt Q9ULW2)
T1 sequence: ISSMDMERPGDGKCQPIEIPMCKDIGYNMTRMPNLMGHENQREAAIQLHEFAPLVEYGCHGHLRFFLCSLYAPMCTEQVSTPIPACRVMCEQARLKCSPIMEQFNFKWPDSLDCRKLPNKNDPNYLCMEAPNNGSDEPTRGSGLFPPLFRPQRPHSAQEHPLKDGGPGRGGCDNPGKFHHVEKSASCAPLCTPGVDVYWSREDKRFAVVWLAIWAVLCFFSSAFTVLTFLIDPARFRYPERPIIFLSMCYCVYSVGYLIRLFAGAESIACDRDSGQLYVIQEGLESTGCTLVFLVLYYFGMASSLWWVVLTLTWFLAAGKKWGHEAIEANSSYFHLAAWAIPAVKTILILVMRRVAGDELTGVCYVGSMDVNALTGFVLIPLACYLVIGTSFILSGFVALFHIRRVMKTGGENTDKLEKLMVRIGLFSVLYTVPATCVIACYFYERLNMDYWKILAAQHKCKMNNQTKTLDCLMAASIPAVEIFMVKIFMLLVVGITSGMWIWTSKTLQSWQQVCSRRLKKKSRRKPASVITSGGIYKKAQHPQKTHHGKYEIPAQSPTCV

[2] = target: FZD4 (human) (UniProt Q9ULV1)
[3] = target: T2, FZD3 (human) (UniProt Q9NPG1)
T2 sequence: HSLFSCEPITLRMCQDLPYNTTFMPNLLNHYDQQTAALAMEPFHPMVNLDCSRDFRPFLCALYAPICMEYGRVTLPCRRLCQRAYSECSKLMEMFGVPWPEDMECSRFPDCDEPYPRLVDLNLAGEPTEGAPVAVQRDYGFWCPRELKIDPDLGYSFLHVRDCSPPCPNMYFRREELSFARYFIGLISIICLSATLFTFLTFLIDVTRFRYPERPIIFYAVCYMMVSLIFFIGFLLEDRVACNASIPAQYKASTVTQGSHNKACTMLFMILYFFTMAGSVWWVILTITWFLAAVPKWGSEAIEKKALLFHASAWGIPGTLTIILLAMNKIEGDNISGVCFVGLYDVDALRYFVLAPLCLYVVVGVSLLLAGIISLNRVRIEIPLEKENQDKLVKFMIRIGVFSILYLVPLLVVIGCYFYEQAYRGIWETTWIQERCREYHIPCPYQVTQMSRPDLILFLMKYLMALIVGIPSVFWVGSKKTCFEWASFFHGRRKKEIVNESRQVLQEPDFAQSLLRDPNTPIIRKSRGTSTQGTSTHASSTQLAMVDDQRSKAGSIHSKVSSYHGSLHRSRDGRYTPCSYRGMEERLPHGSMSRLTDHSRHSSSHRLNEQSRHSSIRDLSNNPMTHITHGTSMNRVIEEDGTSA

[4] = target: T3, FZD6 (human) (UniProt O60353)
T3 sequence: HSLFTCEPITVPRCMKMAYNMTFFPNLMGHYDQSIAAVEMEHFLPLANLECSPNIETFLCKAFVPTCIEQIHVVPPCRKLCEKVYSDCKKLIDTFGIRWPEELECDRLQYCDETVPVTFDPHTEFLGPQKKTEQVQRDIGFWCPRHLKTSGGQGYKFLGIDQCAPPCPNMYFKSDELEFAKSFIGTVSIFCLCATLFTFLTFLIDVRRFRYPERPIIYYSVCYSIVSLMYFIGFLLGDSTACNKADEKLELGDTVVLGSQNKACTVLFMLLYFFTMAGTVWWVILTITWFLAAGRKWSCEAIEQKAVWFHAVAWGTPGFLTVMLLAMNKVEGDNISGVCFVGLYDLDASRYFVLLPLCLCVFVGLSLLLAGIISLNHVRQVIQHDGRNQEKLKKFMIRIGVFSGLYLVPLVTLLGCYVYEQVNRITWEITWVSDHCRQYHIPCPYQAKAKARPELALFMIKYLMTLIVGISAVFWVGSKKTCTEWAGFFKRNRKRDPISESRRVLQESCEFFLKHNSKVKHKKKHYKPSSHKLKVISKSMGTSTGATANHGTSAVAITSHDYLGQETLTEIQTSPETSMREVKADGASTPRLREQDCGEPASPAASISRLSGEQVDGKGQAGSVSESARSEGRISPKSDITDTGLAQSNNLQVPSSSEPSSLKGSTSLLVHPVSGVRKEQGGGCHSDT

Measured: binding

B1: TMEM79 (FL, full length) (protein, UniProt Q9D709 1-391)
chain: MTEPETLALLDMKEPETPEKSPPQALVLQSEEEGGTESPGTESLRVGSSVGSPIVREGPEDGPDSTISEAATLPWGTDPHPSAPLPDPPGWRDIEPEPLESEAPTKSEEPFKEDANLLPEKTVRAFVPIDLQCIERKPQEERILHRDAGPGELRNFLPARLSHPEPPERKWAEAVVRPPGRSCGGCGSCGGREALRAVASVVAALIFFPCLLYGAYAFLPFDAPRLPTMSSRLVYTLRCGVFATFPIVLGLLVYGLSLLCFSALRPFGEPRREVEIHRQYVAQSVQLFILYFFNLAVLSTYLPQDTLKLLPLLTGLFAISRLIYWLTFAVGRSFRGFGYGLTFLPLLAMLVWNLYYMFVVEPERMLTASESRLDYPDHARSVSDYRPRSWG
binds: all assays above
